The list shows a part of the results.
molecular target: OsWRKY34 (Oryza sativa, UniProt Q0JBA9 1-250); assay: protein-binding microarray (RPBM); PBS, 2% BSA, 51.3 ng/ul salmon testes DNA, 50 uM zinc acetate, 200 nM TF, 25 C, 1 h; high values mean tight binding; details: protein: recombinant; tags: N-terminal polyhistidine and DsRed monomer fusion (pET32a); label: CyDye5-dUTP incorporated in the synthesized complementary strand; 3' TTTTT single-stranded linker to array surface; dsDNA, one strand shown
How it was run: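 The binding signal for each feature is its fluorescence intensity in arbitrary units. An Axon 4000B scanner was used to read a custom Agilent array that had been made double-stranded with Cy5-dUTP primer extension, blocked with 2% BSA, incubated at 25 °C for 1 h with 200 nM protein in PBS, 2% BSA, salmon testes DNA and 50 µM zinc acetate, and washed. The protein was an N-terminal polyhistidine–DsRed transcription factor fusion from E. coli BL21-CodonPlus, purified on Ni–NTA.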

Protein sequences, listed by entry. Tags and fused reporters are not part of them.
UniProt Q0JBA9, entry or part of it: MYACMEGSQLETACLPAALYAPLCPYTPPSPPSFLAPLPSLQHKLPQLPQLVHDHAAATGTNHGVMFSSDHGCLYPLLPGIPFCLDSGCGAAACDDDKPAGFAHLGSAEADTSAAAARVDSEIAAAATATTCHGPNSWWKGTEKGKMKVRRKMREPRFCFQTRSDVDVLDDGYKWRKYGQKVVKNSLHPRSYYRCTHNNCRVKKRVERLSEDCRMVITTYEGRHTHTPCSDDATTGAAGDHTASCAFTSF

Point of comparison: “ATCAATATATTGCCGGCACAATTCGCACATATACTATATACGGAGTCACCTAGTGCAG”, binding signal 8640 fluorescence intensity (a.u.). Against it:
- CGCTGTTCAGACGTTGACTCTCGTTGTTTTTATAGTTTTTCGGAGTCACCTAGTGCAG — higher, 14600 fluorescence intensity (a.u.)
- TCCCAAAGGCCTCATTCGCTGCAGCTCACACACAACCTCTCGGAGTCACCTAGTGCAG — higher, 10600 fluorescence intensity (a.u.)
- GTTGATTGTTCTGCTTATTGATGCTTAGATTTTTCCAATGCGGAGTCACCTAGTGCAG — higher, 9720 fluorescence intensity (a.u.)
- GGGTGGAGCTGGTGTCGTTGCCGCGACCTCATTGGCTAAACGGAGTCACCTAGTGCAG — lower, 8040 fluorescence intensity (a.u.)
- AGAGGGGCGGCGGTGGCGAGCCGGCGATGAACGCGAGGGGCGGAGTCACCTAGTGCAG — lower, 8130 fluorescence intensity (a.u.)
- CTCCTTCCCGTCATTTTTTCATTTTCATTTTCATTTTCTGCGGAGTCACCTAGTGCAG — lower, 8620 fluorescence intensity (a.u.)
- CCTATGTTTCTCGAGTAAGATCCTTTCTCCTATGTTAGTTCGGAGTCACCTAGTGCAG — higher, 9230 fluorescence intensity (a.u.)
- GATTTCTTCTTCTTGCTTTAGATTTCTTATCCTTCTTCTTCGGAGTCACCTAGTGCAG — higher, 8710 fluorescence intensity (a.u.)
- AGAGTAGAGTCCCAACTCCTTTTGCCCTGTTGTTGTTATTCGGAGTCACCTAGTGCAG — higher, 8900 fluorescence intensity (a.u.)
- TCACTACGAGGCTTTATTACTTCATTTTTGCAAAATTCCTCGGAGTCACCTAGTGCAG — higher, 13700 fluorescence intensity (a.u.)
- ACACATCTCTTTTTGCAAGATCTCTTCTTGTTCATCATCTCGGAGTCACCTAGTGCAG — higher, 9420 fluorescence intensity (a.u.)
- TCCCGCTCCCAATCCATTGCACTTCGCTCCTTCGAGCGCGCGGAGTCACCTAGTGCAG — higher, 10600 fluorescence intensity (a.u.)
- GATTGAGGGGAATGTTCCATGTTTTGTTGAACTCTTTTCCCGGAGTCACCTAGTGCAG — higher, 9320 fluorescence intensity (a.u.)
- TCTATTTACGTGTTCGTTCGTCGTCGCTCCCATCTCCACTCGGAGTCACCTAGTGCAG — higher, 9090 fluorescence intensity (a.u.)
- CCCACGTCGCGCGCGCGCCTCCCATCGCCTGCCTATACATCGGAGTCACCTAGTGCAG — higher, 11000 fluorescence intensity (a.u.)
- GGCTCCGGCCGCCGGCGCAACGGGTATTCTCATCCTCATTCGGAGTCACCTAGTGCAG — higher, 9800 fluorescence intensity (a.u.)
- TTAATCCACTACATTTTTTTCTATCCATATAGGATTTTGACGGAGTCACCTAGTGCAG — lower, 8070 fluorescence intensity (a.u.)
- CATGTCAGCAATCACTTTCCAATGCTTAACAATACCCACTCGGAGTCACCTAGTGCAG — higher, 8890 fluorescence intensity (a.u.)
- TTGTATGCCTACTTGGACTTTTCTTTTCTTTTTTTTCTTTCGGAGTCACCTAGTGCAG — higher, 8690 fluorescence intensity (a.u.)
- ATCACTTATATTCTCTCGTCTCATTTTAGTCGTTTACTAACGGAGTCACCTAGTGCAG — lower, 8390 fluorescence intensity (a.u.)
- ATTGGGTGCTTCTTCCAACCCCATCAGCTTGGCAATGACACGGAGTCACCTAGTGCAG — lower, 8380 fluorescence intensity (a.u.)
- AATGTTCCAGTGGTCTTCTTGTTTGGATTATACTGTATTGCGGAGTCACCTAGTGCAG — higher, 10700 fluorescence intensity (a.u.)
- AACAGTAGGCCATTCTCATTCAGTTGTGTAACTATGTAACCGGAGTCACCTAGTGCAG — higher, 9180 fluorescence intensity (a.u.)
- TGACGGGGTTTGGTCTCATCTTTCGTGGTCAGATTTGCCGCGGAGTCACCTAGTGCAG — lower, 8360 fluorescence intensity (a.u.)
- CGGTTGACTTTTTTTTTCTAATAAGCCAAAACGGCTTATTCGGAGTCACCTAGTGCAG — higher, 18800 fluorescence intensity (a.u.)
- GTGTGGGGCTTTTAACTTTTTGTCACTTTTAAATTTTAAACGGAGTCACCTAGTGCAG — higher, 21300 fluorescence intensity (a.u.)
- ACCACTCTCTTCATCCCTAGCCTAATCATCCCTATCAACACGGAGTCACCTAGTGCAG — higher, 8790 fluorescence intensity (a.u.)
- GTAGGGTCATGCTTATGTCTGTTCGATTGGATCTGGGATTCGGAGTCACCTAGTGCAG — higher, 9270 fluorescence intensity (a.u.)
- TCTAGACTCATCTACCTCATTTTCTAGAAGTTCATTCATCCGGAGTCACCTAGTGCAG — lower, 8380 fluorescence intensity (a.u.)
- CCGGTGACCCCGGCACTCCGCCGATCCGCTTCTCCTCCTCCGGAGTCACCTAGTGCAG — lower, 8320 fluorescence intensity (a.u.)
- AGATTTTGTTTTTCTTTTCTGTTTCTTTCCATTTGATTTTCGGAGTCACCTAGTGCAG — higher, 9340 fluorescence intensity (a.u.)
- CGACGAATTCTGCTCTCCATTCTCCTCGCCGTTGACGAAACGGAGTCACCTAGTGCAG — higher, 10600 fluorescence intensity (a.u.)
- TCGTTTCCCTCGCCGCCGACGCGTCTTAGTTTGCCCATGCCGGAGTCACCTAGTGCAG — higher, 10400 fluorescence intensity (a.u.)
- CACACCGAAACGGCCCACGCGTACCGACGCACCTCGCTCACGGAGTCACCTAGTGCAG — higher, 9110 fluorescence intensity (a.u.)
- AGGCCGTTGATCTTCTTTTTGGATTATGTTACAGGTTTCACGGAGTCACCTAGTGCAG — lower, 8460 fluorescence intensity (a.u.)
- GTTTTACCTTTTTTCCATCGGTTTCTTTTCCTTGGTCGAACGGAGTCACCTAGTGCAG — lower, 8240 fluorescence intensity (a.u.)
- GCCGTCGTCTCCCGTGTGCTCGGCTTCTCCGCCGTCCCTCCGGAGTCACCTAGTGCAG — lower, 8170 fluorescence intensity (a.u.)
- CGGCGAGCGAAGGCCGCGGCGGGGCGGGCGGAGGCGGGACCGGAGTCACCTAGTGCAG — higher, 10500 fluorescence intensity (a.u.)
- GGTGGTGGGTAAAAGAACAATAATATCTCGCCGGTAAATTCGGAGTCACCTAGTGCAG — higher, 8930 fluorescence intensity (a.u.)
- ATTATAACTATTCTTCGTTCGTTTCTTCACCTACTTCTACCGGAGTCACCTAGTGCAG — higher, 14500 fluorescence intensity (a.u.)
- GCGGGCGGGCGGGCGGGCGGCAAGAAACAGGGATCTTGAGCGGAGTCACCTAGTGCAG — higher, 15600 fluorescence intensity (a.u.)
- ATCAAGCCGAATAGTGCTGACATCTTCATTCTGGTTTTTTCGGAGTCACCTAGTGCAG — higher, 9510 fluorescence intensity (a.u.)
- GCATATAAACGAGCGCCTCCGCTGCCACTTCACAAGCAACCGGAGTCACCTAGTGCAG — higher, 9080 fluorescence intensity (a.u.)
- AATATTTTTTGACTTCTCATTTCACTTGAAATCACACGACCGGAGTCACCTAGTGCAG — lower, 8330 fluorescence intensity (a.u.)
- GGTGGGAGGAGGGATGAAAAAATGACGAGTTCGATTTTAACGGAGTCACCTAGTGCAG — higher, 9990 fluorescence intensity (a.u.)
- TTATCGAATGATTGACCGGTCAAACCCTTCTTAGCCATAACGGAGTCACCTAGTGCAG — higher, 11600 fluorescence intensity (a.u.)
- ATACTGAGAAAGTGCCAAGTTTTTGTCTGCTTCATGTAACCGGAGTCACCTAGTGCAG — lower, 8110 fluorescence intensity (a.u.)
- TCCGCTTTAGAAGGCTTCTCTACTGTACTTCCTTTCACTACGGAGTCACCTAGTGCAG — higher, 9430 fluorescence intensity (a.u.)
- GCCATCATCTTCTTCGCCGGTTTGTTTCTTCCTCTTCTTTCGGAGTCACCTAGTGCAG — higher, 13900 fluorescence intensity (a.u.)
- CTTCCGCGTGCCGCTCCGCGCCGCCATGCACCCGGCGCGCCGGAGTCACCTAGTGCAG — higher, 9400 fluorescence intensity (a.u.)
- GGATCTGTTAGCTTCCTGGTGTAATCAAATTGTCTCTTTACGGAGTCACCTAGTGCAG — higher, 8970 fluorescence intensity (a.u.)
- GCGTTGGAACTGGTCATCTTGCAAAAAAGTCCTCGATTAACGGAGTCACCTAGTGCAG — lower, 8080 fluorescence intensity (a.u.)
- GTTTGTCCCGATGTTGATTTTTCACATAATATTTGACCATCGGAGTCACCTAGTGCAG — higher, 9470 fluorescence intensity (a.u.)

— publication PMC7819943, “Rice protein-binding microarrays: a tool to detect cis-acting elements near promoter regions in rice”
